Reference: PubChem BioAssay AID493014 (National Center for Advancing Translational Sciences (NCATS), 2011)
The other results are listed elsewhere or left out. These are further read-outs of the screen, such as a control signal, another cell line or another target. No call is given for them. The list favours compounds with an active or inconclusive main result. Words in brackets tell the shape of the fitted curve; partial curves, single points and poor fits give uncertain potencies.

Assay: qHTS Assay to Find Inhibitors of Chronic Active B-Cell Receptor Signaling
Conditions: ABC-DLBCL IkBa-CBG/CBR reporter, luminescence ratio (green luciferase fused to IkBa over red control in TMD8 lymphoma cells), 4 h
Method in brief: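 Cell line TMD8 (human ABC DLBCL), stably expressing tet-inducible CBG68-IkBa fusion and CBR; IMDM/0.5% FBS; cpd up to 46 uM; dox induction, 4 h, 37C/5% CO2; dual luminescence; green/red ratio; MG132 control.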

[1] = measured here: CBR red luminescence, cell number
[2] = measured here: IkBa-CBG green luminescence

Structure (SMILES) | AC50 [1] | AC50 [2]
CC(C)(C#CC(O)(c1ccccc1)c1ccccc1)N1CCCCC1 | 5.62 µM [falling, partial curve, poor fit] | 
O=S(=O)(NCc1cc(-c2ccccc2Cl)no1)c1ccccc1 | 0.112 µM [rising, full curve, poor fit] | 
CC(=O)Nc1cccc(NS(=O)(=O)c2cc3c4c(c2)CCN4C(=O)CC3)c1 | 32.6 µM [rising, partial curve, poor fit] | 
CCOC(=O)C(c1ccccc1)N1CCN(c2ccc(OC)cc2)CC1 (configuration not stated) | 3.55 µM [rising, partial curve, poor fit] | 
CC(OC(=O)/C=C/c1ccc2ccccc2n1)C(=O)N(C)c1ccccc1 (configuration not stated) | 3.26 µM [rising, partial curve, poor fit] | 
Cc1ccc(NC2CCCN(C(=O)CCC3=NNC(=O)CC3)C2)cc1C (configuration not stated) | 1.26 µM [rising, full curve, poor fit] | 
C=CC(C)(C)c1cc2cc3ccoc3cc2oc1=O | 4.11 µM [rising, full curve, poor fit] | 
O=C(CCc1c[nH]c2ccccc12)OCC(=O)N1CCN(S(=O)(=O)c2ccccc2)CC1 | 29.1 µM [rising, single point] | 
O=C(CN1CC(=O)Nc2ccccc21)Nc1ccc(F)c(F)c1 | 7.08 µM [falling, partial curve] | 
O=C(O)CCNc1nc(C(F)(F)F)nc2ccccc12 | 10 µM [rising, partial curve, poor fit] | 
O=C(O)c1cc(-c2ccc3c(c2)OCO3)nc2ccc(Cl)cc12 | 17.8 µM [falling, partial curve, poor fit] | 
Cc1cccc(OCc2nnc(SCC(=O)N(C(C)C)C(C)C)n2Cc2ccco2)c1C | 15.8 µM [falling, single point] | 
COc1ccc(C2CC(=O)c3cnc(NC(=O)c4cccc(OC)c4)nc3C2)cc1 (configuration not stated) | 0.794 µM [falling, full curve, poor fit] | 
CCN(CC)c1ccc(C(=O)NNC(=O)CCl)cc1 | 0.447 µM [falling, partial curve, poor fit] | 
CCc1cc(C(=O)NNC(=S)Nc2cccc(C)c2)cs1 | 25.9 µM [falling, partial curve, poor fit] | 
Fc1ccc(Cn2cccc2C2=NC(c3ccccc3)CO2)cc1 (configuration not stated) | 3.98 µM [rising, partial curve] | 
COc1ccc(-c2sc3cc4c(cc3c2C#CC2(O)CCCCC2)OCO4)cc1 | 23.1 µM [rising, partial curve] | 
COc1ccc(NC(=O)C2CCCN(S(=O)(=O)c3cccc4cccnc34)C2)cc1OC (configuration not stated) | 6.51 µM [rising, full curve, poor fit] | 
Cc1ccc(Nc2nc(N)c3ccccc3n2)cc1Cl | 14.1 µM [falling, single point] | 
CCOc1ccc(C(=O)Nc2cccc(SC)c2)cc1 | 0.92 µM [falling, full curve, poor fit] | 
Cc1cc(Cl)c2oc(C(=O)N(C)Cc3ccon3)c(C)c2c1 | 7.94 µM [rising, partial curve] | 

Structure (SMILES) | AC50 [1] | AC50 [2]
Cc1c(/C=N/NC(=O)c2cccnc2)c2ccccc2n1Cc1ccccc1 | 25.1 µM [falling, single point] | 
Cc1cc(C(=O)NN=C2C3CC4CC(C3)CC2C4)c2ccccc2n1 | 31.6 µM [rising, single point] | 22.4 µM [falling, single point]
CCOc1ccccc1NC(=O)CN(C)S(=O)(=O)c1ccc(OC)c(C)c1 | 2.31 µM [rising, single point] | 
Cc1ccccc1Oc1nc2ccccc2n2cnnc12 | 5.01 µM [rising, full curve, poor fit] | 
O=c1c2cc([N+](=O)[O-])ccc2nc(CN2CCN(c3ccccn3)CC2)n1-c1ccccc1F | 0.562 µM [rising, full curve, poor fit] | 
O=C(NCc1ccco1)c1cccc(N2CCCC2=O)c1 | 11.6 µM [falling, partial curve, poor fit] | 
O=C(O)c1ccccc1NC(=S)NC(=O)c1sc2ccccc2c1Cl | 35.5 µM [falling, partial curve, poor fit] | 
COc1ccc(-c2nn(-c3ccccc3)cc2/C=N/NC(=O)c2cccc(S(=O)(=O)Nc3ccccc3Cl)c2)cc1 | 9.2 µM [rising, partial curve] | 
CCc1ccccc1NC(=O)Nc1ccc(F)cc1 | 17.8 µM [falling, single point] | 
O=C(CCC(=O)c1ccc[nH]1)c1ccc(Cl)cc1 | 10 µM [falling, partial curve] | 
COc1ccc(/C=N/c2oc(C)c(C)c2C#N)c(OC)c1 | 17.8 µM [rising, partial curve, poor fit] | 
COc1ccc(CC(=O)Nc2cccc(-c3nnc(-c4cccc(C)c4)o3)c2)cc1OC | 0.517 µM [falling, full curve, poor fit] | 
CCC(C)(NC(=O)Cc1c[nH]c2ccccc12)C(=O)NC1CCCCC1 (configuration not stated) | 20.6 µM [rising, partial curve, poor fit] | 
Cc1nn(C)c(C)c1NC(=O)CCSc1nc(-c2ccco2)cc(C(F)(F)F)n1 | 0.517 µM [falling, full curve, poor fit] | 
O=C(Nc1cccc(F)c1)c1c(O)c2ccccc2[nH]c1=O | 0.112 µM [rising, full curve, poor fit] | 
COc1cc(OC)cc(C(=O)N[C@H](C(=O)NCCc2c[nH]c3ccccc23)C(C)C)c1 | 5.62 µM [rising, single point] | 
O=C(NNc1nc2ccccc2s1)c1ccc(F)cc1 | 14.6 µM [falling, partial curve] | 
O=C(Nc1ccccc1)N1CCN(c2ccc(F)cc2)CC1 | 18.4 µM [falling, partial curve] | 
O=C1CCCc2c1[nH]c1ccc(CN3CCCCC3)cc21 |  | 12.6 µM [falling, partial curve, poor fit]
CCSc1nnc(NC(=O)c2ccc(Br)s2)s1 | 0.731 µM [falling, full curve] | 

Single values from the results shown:
Value for O=C(CCC(=O)c1ccc[nH]1)c1ccc(Cl)cc1 under AC50 [1]: 10 µM [falling, partial curve]
Value for O=C(NCc1ccco1)c1cccc(N2CCCC2=O)c1 under AC50 [1]: 11.6 µM [falling, partial curve, poor fit]
